Test system: primary forebrain neurons
Conditions: rescreen, 12.5 μM, 24 h, vs DMSO wells
Description: Primary forebrain cell culture and maintenance. Forebrains of P0 Mt or Mt/Ai14 pups without olfactory bulbs and meninges were collected and placed in ice cold Ca^2+ and Mg^2+ free HBSS supplemented with 2 μg/ml gentamicin, 25 mM D-glucose, 1 mM pyruvate and 20 mM HEPES. Brain tissue was digested with 0.6 mg/ml papain at 37° C. for 20 min. Forebrains were washed with plating media [Neurobasal (Gibco), 5% FBS, 4 mM GlutaMAX (Gibco), 2 μg/ml gentamicin]. The tissue was gently triturated, allowed to settle and the supernatant was filtered through a 40 μm mesh-sized cell strainer. Cells were centrifuged at 420×g for 4 min and resuspended in plating media. 15,000 cells per well were plated with 2×10^8 viral particles/ml onto black Greiner μClear (Cat #781946) or Ultra-Low Base Aurora with evaporation barrier (Cat #ABE201201B) 384-well plates (80 μl/well) pre-coated with poly-D-lysine for the primary screen and rescreen, respectively. Plating and media changes were performed using an automated Biomek FX^P liquid handling workstation. Four hr after plating, 75% of the plating media was replaced by feeding media [Neurobasal-A (Gibco), 4 mM GlutaMAX (Gibco), 2 μg/ml gentamicin, 2% B27 (Gibco)]. At DIV4, 50% of the media was exchanged with fresh feeding media supplemented with 16 μM 5-Fluoro-2′-deoxyuridine (FUdR) to prevent glial cell over-growth. […]

For `COC(=O)C1=C(C)NC(C)=C(C(=O)OC)C1c1ccccc1[N+](=O)[O-]` [NIFEDIPINE], the “Dendritic Mt CA” value was 2.85 robust Z-scores and the “Neurite Area” value was 0.22 robust Z-scores.

Source: US20230003721A1, “MITOTHERAPEUTICS FOR THE TREATMENT OF BRAIN DISORDERS” (The University of Florida Research Foundation, Inc., priority 2019, published 2023)
